No constants are given. Whether binding was seen depends on the method and setting. Some binding calls cover weakened binding; strength is not graded here.
Biological target: biotinylated recombinant human LRP-1 Cluster II Fc Chimera protein (R&D Systems) (human) (UniProt Q07954)
Assay: SPR (BIAcore T200, 37 C), biotinylated LRP-1 Cluster II Fc on NeutrAvidin C1 chip, fl-TFPI 3.6-142.3 nM single cycle

The chains behind the UniProt entries cited, without tags or fusion partners. Where a name states a change or a piece, a line headed by the entry shows the natural chain unless it says otherwise. Residues count along the entry.
UniProt Q07954, residues 805-1184: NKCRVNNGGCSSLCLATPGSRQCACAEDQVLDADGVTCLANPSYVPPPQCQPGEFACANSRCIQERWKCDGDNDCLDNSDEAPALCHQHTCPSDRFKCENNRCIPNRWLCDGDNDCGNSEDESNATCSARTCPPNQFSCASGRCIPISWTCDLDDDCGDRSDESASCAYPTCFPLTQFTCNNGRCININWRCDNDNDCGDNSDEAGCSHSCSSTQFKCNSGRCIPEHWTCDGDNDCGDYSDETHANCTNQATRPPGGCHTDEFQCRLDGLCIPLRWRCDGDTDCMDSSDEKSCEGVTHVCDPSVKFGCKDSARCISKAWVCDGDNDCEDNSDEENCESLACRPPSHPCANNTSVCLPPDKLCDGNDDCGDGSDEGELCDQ
UniProt P10646, residues 29-304: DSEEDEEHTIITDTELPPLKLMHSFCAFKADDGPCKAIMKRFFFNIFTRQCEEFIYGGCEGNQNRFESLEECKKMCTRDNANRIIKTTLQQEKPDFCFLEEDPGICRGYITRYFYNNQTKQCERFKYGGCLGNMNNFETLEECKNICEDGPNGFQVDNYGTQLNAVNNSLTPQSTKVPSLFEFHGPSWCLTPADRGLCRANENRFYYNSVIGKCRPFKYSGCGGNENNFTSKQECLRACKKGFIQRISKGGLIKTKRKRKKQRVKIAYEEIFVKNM

binding: binds
Substance: recombinant human fl-TFPI (Baxter Innovations GmbH) (from UniProt P10646 29-304)
